Reference: the supplement of paper PMC4604168 (melanoma cell lines)
Some of the results follow. Many values rest on one well or one pass, so single values are uncertain.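 Cells were imaged in 1,536-well plates, and nuclei stained with an antibody against cleaved PARP were counted against all DNA-stained nuclei to give the apoptosis fraction. Screening doses were chosen to leave most cells alive, and resting and induced cleaved-PARP levels differ strongly between cell lines.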

Assays:
Test in all cases: cleaved PARP positive nuclei fraction relative to DMSO control; melanoma cells; higher = more apoptosis
Details in all cases: library dose: low library concentration; 72 h
MZ2-MEL = tested on: MZ2-MEL
MeWo = tested on: MeWo
RPMI7951 = tested on: RPMI7951
RVH-421 = tested on: RVH-421
SkMel28 = tested on: SkMel28
SkMel2 = tested on: SkMel2
SkMel30 = tested on: SkMel30
SkMel5 = tested on: SkMel5
UACC257 = tested on: UACC257
UACC62 = tested on: UACC62
WM115 = tested on: WM115
WM1716 = tested on: WM1716
WM1745 = tested on: WM1745
WM3526 = tested on: WM3526
WM3619 = tested on: WM3619
WM451Lu = tested on: WM451Lu

Row | Compound | cleaved PARP positive nuclei fraction (MZ2-MEL) | cleaved PARP positive nuclei fraction (MeWo) | cleaved PARP positive nuclei fraction (RPMI7951) | cleaved PARP positive nuclei fraction (RVH-421) | cleaved PARP positive nuclei fraction (SkMel28) | cleaved PARP positive nuclei fraction (SkMel2) | cleaved PARP positive nuclei fraction (SkMel30) | cleaved PARP positive nuclei fraction (SkMel5) | cleaved PARP positive nuclei fraction (UACC257) | cleaved PARP positive nuclei fraction (UACC62) | cleaved PARP positive nuclei fraction (WM115) | cleaved PARP positive nuclei fraction (WM1716) | cleaved PARP positive nuclei fraction (WM1745) | cleaved PARP positive nuclei fraction (WM3526) | cleaved PARP positive nuclei fraction (WM3619) | cleaved PARP positive nuclei fraction (WM451Lu)
1 | C[C@@H](Oc1cc(-c2cnn(C3CCNCC3)c2)cnc1N)c1c(Cl)ccc(F)c1Cl [Crizotinib] + CC(C)(C)c1cnc(CSc2cnc(NC(=O)C3CCNCC3)s2)o1 [SNS-032] (first compound 0.2 µM, partner dose 0.01 µM) | 128% | 54% | 177% | 78.9% | 68.1% | 125% | 237% | 93.7% | 111% | 168% | 76.7% | 67.6% | 100% | 54.4% | 94.1% | 122%
2 | CC(C)C[C@H](NC(=O)[C@H](Cc1ccccc1)NC(=O)c1cnccn1)B(O)O [Bortezomib] + COc1ccc(COc2ccc(Cc3cnc(N)nc3N)cc2OC)cc1 [GW2580] (first compound 0.001 µM, partner dose 1 µM) | 138% | 61.9% | 541% | 79.6% | 151% | 110% | 124% | 88.1% | 451% | 70.1% | 161% | 567% | 123% | 182% | 213% | 28.7%
3 | CS(=O)(=O)CCNCc1ccc(-c2ccc3ncnc(Nc4ccc(OCc5cccc(F)c5)c(Cl)c4)c3c2)o1 [lapatinib] + CN(NC(=O)CC(=O)NN(C)C(=S)c1ccccc1)C(=S)c1ccccc1 [STA4783] (first compound 0.8 µM, partner dose 0.006 µM) | 73.5% | 91.7% | 124% | 83.8% | 51.2% | 31% | 67.1% | 94.5% | 103% | 135% | 104% | 60.6% | 180% | 148% | 159% | 121%
4 | Cc1cc(Nc2cc(N3CCN(C)CC3)nc(/C=C/c3ccccc3)n2)n[nH]1 + COc1ccc(-c2ccc3c(N4CCOCC4)nc(N4C[C@@H](C)O[C@@H](C)C4)nc3n2)cc1CO [KU0063794] (first compound 0.04 µM, partner dose 0.02 µM) | 154% | 220% | 41.3% | 82.2% | 271% | 44.9% | 42% | 84.7% | 83.8% | 106% | 237% | 58.2% | 99.4% | 78.4% | 112% | 65.5%
5 | Nc1nc(F)nc2c1ncn2[C@@H]1O[C@H](CO)[C@@H](O)[C@@H]1O [fludarabine] + Cc1ccc(NC(=O)c2cccc(N(C)C)c2)cc1NC(=O)c1ccc(O)cc1 [ZM336372] (first compound 0.2 µM, partner dose 2 µM) | 114% | 690% | 64.7% | 63.6% | 145% | 309% | 628% | 226% | 193% | 57% | 47.3% | 100% | 91.3% | 408% | 91.4% | 250%
6 | C=C(c1ccc(C(=O)O)cc1)c1cc2c(cc1C)C(C)(C)CCC2(C)C [Bexarotene] + O=C1NC(=O)/C(=C/c2ccc(-c3ccc(F)cc3O)o2)S1 [AS252424] (first compound 2 µM, partner dose 1 µM) | 172% | 66.4% | 112% | 205% | 214% | 82.6% | 115% | 162% | 91.5% | 121% | 106% | 78.7% | 94.2% | 77.1% | 204% | 191%
7 | CC(C)C[C@H](NC(=O)[C@H](Cc1ccccc1)NC(=O)c1cnccn1)B(O)O [Bortezomib] + NCC(=O)Nc1ccc(-n2nc(C(F)(F)F)cc2-c2ccc3c(ccc4ccccc43)c2)cc1 [OSU03012] (first compound 0.001 µM, partner dose 1 µM) | 99.2% | 98.1% | 185% | 80.2% | 109% | 168% | 120% | 36.6% | 133% | 63.5% | 50% | 305% | 190% | 614% | 584% | 364%
8 | Cn1c(=O)n(-c2ccc(C(C)(C)C#N)cc2)c2c3cc(-c4cnc5ccccc5c4)ccc3ncc21 + NCC(=O)Nc1ccc(-n2nc(C(F)(F)F)cc2-c2ccc3c(ccc4ccccc43)c2)cc1 [OSU03012] (first compound 0.004 µM, partner dose 1 µM) | 114% | 165% | 51.2% | 100% | 128% | 71.7% | 92.4% | 109% | 75.2% | 314% | 59.1% | 89% | 101% | 101% | 89.3% | 41.5%
9 | CN1CCN(c2ccc3nc(-c4c(N)c5c(F)cccc5[nH]c4=O)[nH]c3c2)CC1 [Dovitinib] + O=c1cc(-c2cccc3c2Sc2ccccc2S3)oc(N2CCOCC2)c1 [KU55933] (first compound 0.1 µM, partner dose 1 µM) | 155% | 98.9% | 92.5% | 129% | 134% | 79% | 54.4% | 151% | 136% | 145% | 76.8% | 29.7% | 114% | 76% | 83.5% | 93%
10 | CN1CCN(c2ccc3nc(-c4c(N)c5c(F)cccc5[nH]c4=O)[nH]c3c2)CC1 [Dovitinib] + O=C(Nc1cccc(Cl)c1)Nc1ncc(CCNc2ncnc3ccsc23)s1 [SNS314] (first compound 0.1 µM, partner dose 0.0008 µM) | 244% | 103% | 57.3% | 134% | 110% | 128% | 384% | 89.2% | 127% | 75.9% | 196% | 54.9% | 107% | 59.1% | 116% | 217%
11 | CCCS(=O)(=O)Nc1ccc(F)c(C(=O)c2c[nH]c3ncc(Cl)cc23)c1F + COC(=O)c1sccc1S(=O)(=O)Nc1ccc(Nc2ccccc2)cc1OC [GSK0660] (first compound 0.08 µM, partner dose 1 µM) | 22.6% | 44.8% | 63.8% | 150% | 113% | 81.4% | 86.5% | 139% | 108% | 552% | 406% | 54.5% | 109% | 120% | 97.2% | 45%
12 | Nc1ncn([C@H]2C[C@H](O)[C@@H](CO)O2)c(=O)n1 [decitabine] + Cc1ccc(NC(=O)c2cccc(N(C)C)c2)cc1NC(=O)c1ccc(O)cc1 [ZM336372] (first compound 0.1 µM, partner dose 2 µM) | 222% | 112% | 165% | 122% | 70.5% | 77.3% | 138% | 76.2% | 92.1% | 64.4% | 64.6% | 88% | 92.3% | 59.4% | 109% | 224%
13 | Cn1c(=O)n(-c2ccc(C(C)(C)C#N)cc2)c2c3cc(-c4cnc5ccccc5c4)ccc3ncc21 + C[C@@H]1CCN(C(=O)CC#N)C[C@@H]1N(C)c1ncnc2[nH]ccc12 [CP690550] (first compound 0.004 µM, partner dose 1 µM) | 119% | 56% | 38.4% | 208% | 82.4% | 86.6% | 165% | 61.4% | 173% | 226% | 16.8% | 114% | 102% | 61.5% | 208% | 91.3%
14 | Nc1ncn([C@H]2C[C@H](O)[C@@H](CO)O2)c(=O)n1 [decitabine] + Oc1cc(-c2nc(-c3ccccc3)[nH]c2-c2ccncc2)ccc1Cl [L779450] (first compound 0.1 µM, partner dose 0.2 µM) | 57.9% | 87.2% | 59.8% | 30.8% | 131% | 153% | 33.5% | 70.1% | 414% | 217% | 142% | 276% | 91.9% | 94.1% | 123% | 240%
15 | Nc1ncn([C@H]2C[C@H](O)[C@@H](CO)O2)c(=O)n1 [decitabine] + Cn1cc(/C=C2\C(=O)Nc3cccnc32)c2ccccc21 [GW441756] (first compound 0.1 µM, partner dose 0.4 µM) | 146% | 45.4% | 78% | 210% | 69.1% | 29.3% | 289% | 95.3% | 165% | 272% | 149% | 106% | 98.4% | 339% | 90.7% | 62.1%
16 | O=C(O)c1ccc2c(c1)nc(Nc1cccc(Cl)c1)c1ccncc12 + CO[C@@H]1[C@H](N(C)C(=O)c2ccccc2)C[C@H]2O[C@]1(C)n1c3ccccc3c3c4c(c5c6ccccc6n2c5c31)C(=O)NC4 [Midostaurin] (first compound 0.4 µM, partner dose 0.08 µM) | 199% | 586% | 34.6% | 84.1% | 102% | 84.7% | 425% | 129% | 77.1% | 185% | 276% | 144% | 110% | 90% | 117% | 55.1%
17 | O=C(O)c1ccc2c(c1)nc(Nc1cccc(Cl)c1)c1ccncc12 + O=S(=O)(c1ccccc1)N(CC(F)(F)F)c1ccc(C(O)(C(F)(F)F)C(F)(F)F)cc1 [T0901317] (first compound 0.4 µM, partner dose 1.4 µM) | 151% | 34.5% | 69.2% | 28.4% | 142% | 70.9% | 114% | 151% | 139% | 378% | 336% | 385% | 98.1% | 233% | 93.7% | 78.3%
18 | Cn1c(=O)n(-c2ccc(C(C)(C)C#N)cc2)c2c3cc(-c4cnc5ccccc5c4)ccc3ncc21 + Cn1cncc1[C@@](N)(c1ccc(Cl)cc1)c1ccc2c(c1)c(-c1cccc(Cl)c1)cc(=O)n2C [tipifarnib] (first compound 0.004 µM, partner dose 0.01 µM) | 29.8% | 33.4% | 100% | 120% | 214% | 141% | 92.5% | 92.2% | 133% | 291% | 248% | 114% | 214% | 66.2% | 116% | 398%

2 entries picked at random from those above:
Row | Compound | cleaved PARP positive nuclei fraction (MZ2-MEL) | cleaved PARP positive nuclei fraction (MeWo) | cleaved PARP positive nuclei fraction (RPMI7951) | cleaved PARP positive nuclei fraction (RVH-421) | cleaved PARP positive nuclei fraction (SkMel28) | cleaved PARP positive nuclei fraction (SkMel2) | cleaved PARP positive nuclei fraction (SkMel30) | cleaved PARP positive nuclei fraction (SkMel5) | cleaved PARP positive nuclei fraction (UACC257) | cleaved PARP positive nuclei fraction (UACC62) | cleaved PARP positive nuclei fraction (WM115) | cleaved PARP positive nuclei fraction (WM1716) | cleaved PARP positive nuclei fraction (WM1745) | cleaved PARP positive nuclei fraction (WM3526) | cleaved PARP positive nuclei fraction (WM3619) | cleaved PARP positive nuclei fraction (WM451Lu)
3 | CS(=O)(=O)CCNCc1ccc(-c2ccc3ncnc(Nc4ccc(OCc5cccc(F)c5)c(Cl)c4)c3c2)o1 [lapatinib] + CN(NC(=O)CC(=O)NN(C)C(=S)c1ccccc1)C(=S)c1ccccc1 [STA4783] (first compound 0.8 µM, partner dose 0.006 µM) | 73.5% | 91.7% | 124% | 83.8% | 51.2% | 31% | 67.1% | 94.5% | 103% | 135% | 104% | 60.6% | 180% | 148% | 159% | 121%
6 | C=C(c1ccc(C(=O)O)cc1)c1cc2c(cc1C)C(C)(C)CCC2(C)C [Bexarotene] + O=C1NC(=O)/C(=C/c2ccc(-c3ccc(F)cc3O)o2)S1 [AS252424] (first compound 2 µM, partner dose 1 µM) | 172% | 66.4% | 112% | 205% | 214% | 82.6% | 115% | 162% | 91.5% | 121% | 106% | 78.7% | 94.2% | 77.1% | 204% | 191%
